Consider 2 substances from PMC5578992.

Amino acid sequences for entries named in this document (tags omitted).
UniProt P49407: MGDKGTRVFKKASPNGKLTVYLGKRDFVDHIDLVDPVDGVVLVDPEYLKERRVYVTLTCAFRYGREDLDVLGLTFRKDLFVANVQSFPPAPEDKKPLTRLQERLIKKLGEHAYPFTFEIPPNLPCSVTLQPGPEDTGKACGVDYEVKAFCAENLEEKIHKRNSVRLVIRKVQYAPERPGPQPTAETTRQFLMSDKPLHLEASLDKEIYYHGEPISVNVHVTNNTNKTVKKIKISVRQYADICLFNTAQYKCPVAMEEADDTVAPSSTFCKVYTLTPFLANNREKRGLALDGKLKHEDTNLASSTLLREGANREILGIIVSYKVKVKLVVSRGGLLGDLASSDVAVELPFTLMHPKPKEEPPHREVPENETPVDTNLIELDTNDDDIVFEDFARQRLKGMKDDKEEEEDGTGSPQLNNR

One assay has as its target AT1R-YFP (UniProt P30556). As to the kind of experiment: FRET or BRET; live AD-293 cells co-transfected with β-arrestin-Rluc and a YFP fusion (AT1R-YFP, with or without the L-type channel; or a YFP-tagged L-type channel plus AT1R); coelenterazine H added 10 min before AngII; ratio 535/475 nm read every 25 s; 23 °C; change of BRET upon AngII stimulation. On the technique in general: Bioluminescence resonance energy transfer reports proximity on the nanometre scale.

The target of assay [1] is YFP-tagged L-type calcium channel (CaV1.2, CaVβ/YFP and CaVα2δ) (UniProt P15381). The description is as above.

These are yes or no findings as the source states them, for the method shown. In cells and extracts the contact can be indirect. Some results given as binding are weak or reduced against the parent protein; the word gives no strength.

For “β-arrestin1-RLuc (from UniProt P49407 1-418)”, in the assay with AT1R-YFP, the binding result was “binds”. Turning to “β-arrestin2-RLuc (from UniProt P32121 1-409)”, the binding entry with AT1R-YFP is recorded as “binds”; in assay [1] it was “no binding”.
